PubChem BioAssay AID652248 | Drosophila RNAi Screening Center – 2013

Assay: 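Kinase and phosphatase regulators of cell lengthening and shape variety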 (primary screen)
Cell system: cultured Drosophila hemocytes
Knock-down reagent: long dsRNA against Drosophila genes
Read-out: 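Automated microscopy of stained actin, tubulin and nuclei; single-cell shape measures assigned to five reference shape types, giving a score per dsRNA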
Scale: elongated score: higher = more elongated bipolar cells
Hit rule: 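Hits show a significant increase of elongated cells; higher rank given where elongated cells rose as other shape types fell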
This is an unselected part of 863 reagents. 32 of them (3.7%) were called active. 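Calls also used reproducibility and a similarity ranking whose scores are not deposited; many active genes show only modest elongated scores.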 The numbers tell different reagents against one gene apart. Names joined by + are all predicted targets of the reagent. Not all columns of the deposit are shown. Not given: the amount of reagent, the time to read-out.

target gene,reagent,"elongated score, rep 1",call
Eph (Eph receptor tyrosine kinase),1,2.7,inactive
dnt (doughnut on 2),1,0.18,inactive
dnt (doughnut on 2),2,-0.32,inactive
CG4546,1,-0.53,inactive
CG4546,2,1.7,inactive
tor (torso),1,-0.53,inactive
CG6805,1,-0.53,inactive
CG6805,2,0.84,inactive
nmo (nemo),1,-0.47,inactive
nmo (nemo),2,-0.24,inactive
nmo (nemo),3,-0.53,inactive
Liprin-beta,1,2.82,active
Liprin-beta,2,6.8,active
Liprin-beta,3,0.66,active

Reagents listed above marked active:
target gene,reagent,"elongated score, rep 1",call
Liprin-beta,1,2.82,active
Liprin-beta,2,6.8,active
Liprin-beta,3,0.66,active

The list goes on:
target gene,reagent,"elongated score, rep 1",call
Csk (C-terminal Src kinase),1,0.39,inactive
Csk (C-terminal Src kinase),2,0.31,inactive
Pi4KIIalpha (Phosphatidylinositol 4-kinase II alpha),1,0.26,inactive
Pi4KIIalpha (Phosphatidylinositol 4-kinase II alpha),2,-0.53,inactive
Pi4KIIalpha (Phosphatidylinositol 4-kinase II alpha),3,1.54,inactive
CG7236,1,1.34,inactive
CG7236,2,-0.06,inactive
Erk7 (Extracellularly regulated kinase 7),1,-0.01,inactive
Erk7 (Extracellularly regulated kinase 7),2,-0.53,inactive
Erk7 (Extracellularly regulated kinase 7),3,-0.39,inactive
Cdk5alpha (Cdk5 activator-like protein),1,-0.53,inactive
Cdk5alpha (Cdk5 activator-like protein),2,-0.27,inactive
Pkn (Protein kinase N),1,-0.53,inactive
Pkn (Protein kinase N),2,0.93,inactive
Klp67A + CG34456,1,-0.27,inactive
MKP-4 (MAPK Phosphatase 4),1,0.51,inactive
MKP-4 (MAPK Phosphatase 4),2,-0.25,inactive
InR (Insulin-like receptor),1,-0.53,inactive
hpo (hippo),1,-0.53,inactive
